Test results as given in article doi:10.1101/2025.10.08.681146.
These are yes or no findings as the source states them, for the method shown. Binding seen in cells or lysates may run through a third protein. Where a sequence is shown, tags or fusion partners need not be part of it.

Target: T1, WIPI1^HA (HA-tagged WIPI1) (human) (UniProt Q5MNZ9)
T1 sequence: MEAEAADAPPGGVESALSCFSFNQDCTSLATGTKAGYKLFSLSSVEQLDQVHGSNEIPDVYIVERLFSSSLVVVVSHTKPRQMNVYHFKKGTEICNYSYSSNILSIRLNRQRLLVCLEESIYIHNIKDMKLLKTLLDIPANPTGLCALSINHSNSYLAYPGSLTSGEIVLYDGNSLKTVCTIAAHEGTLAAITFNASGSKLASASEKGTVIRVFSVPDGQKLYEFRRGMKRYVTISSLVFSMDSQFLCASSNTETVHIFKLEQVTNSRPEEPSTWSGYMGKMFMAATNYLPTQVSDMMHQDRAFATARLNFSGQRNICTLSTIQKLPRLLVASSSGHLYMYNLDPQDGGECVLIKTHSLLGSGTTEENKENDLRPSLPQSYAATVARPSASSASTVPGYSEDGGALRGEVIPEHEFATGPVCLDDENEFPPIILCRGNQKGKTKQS
Assay: co-IP

- binding: no binding
Substance: VPS26C (Retriever subunit) (from UniProt O14972 1-297)
